The list shows a part of the results.
Columns and labels:
Assay in all cases: log2 fold change, soluble protein after heating vs DMSO (PISA); higher = thermal stabilisation; K562 lysate, 10 uM; active = over 0.2 and 3.5 SD of the protein, either way, in both replicates (recomputed)
[1] = compound: C=CC(=O)N1CCC[C@@H](n2nc(-c3ccc(Oc4ccccc4)cc3)c3c(N)ncnc32)C1 [ibrutinib]
Procedure, shortened: (§1)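 Log-two fold change in thermal stability relative to solvent controls is reported from duplicates. For each sample, crude K562 extract from dounce-homogenised pellets in PBS pH 7.4 with 1 mM MgCl2, at 1 mg/mL protein, was treated with 10 μM compound for 30 min. Aliquots heated for 3 min across 48°C-58°C were pooled, brought to 0.5% NP-40 at 4°C and cleared at 21,000xg for 90 min. The supernatant was quantified by TMTpro 16plex LC-MS/MS with channel sums equalised.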

Chains of the proteins cited; added tags and fusions are not shown. Lines headed by an entry give the natural chain unless they say otherwise; changes in a name come on top.
UniProt L0R6Q1: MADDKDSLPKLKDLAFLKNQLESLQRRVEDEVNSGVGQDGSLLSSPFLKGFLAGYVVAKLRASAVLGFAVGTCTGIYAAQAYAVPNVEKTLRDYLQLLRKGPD
UniProt Q8TAD4: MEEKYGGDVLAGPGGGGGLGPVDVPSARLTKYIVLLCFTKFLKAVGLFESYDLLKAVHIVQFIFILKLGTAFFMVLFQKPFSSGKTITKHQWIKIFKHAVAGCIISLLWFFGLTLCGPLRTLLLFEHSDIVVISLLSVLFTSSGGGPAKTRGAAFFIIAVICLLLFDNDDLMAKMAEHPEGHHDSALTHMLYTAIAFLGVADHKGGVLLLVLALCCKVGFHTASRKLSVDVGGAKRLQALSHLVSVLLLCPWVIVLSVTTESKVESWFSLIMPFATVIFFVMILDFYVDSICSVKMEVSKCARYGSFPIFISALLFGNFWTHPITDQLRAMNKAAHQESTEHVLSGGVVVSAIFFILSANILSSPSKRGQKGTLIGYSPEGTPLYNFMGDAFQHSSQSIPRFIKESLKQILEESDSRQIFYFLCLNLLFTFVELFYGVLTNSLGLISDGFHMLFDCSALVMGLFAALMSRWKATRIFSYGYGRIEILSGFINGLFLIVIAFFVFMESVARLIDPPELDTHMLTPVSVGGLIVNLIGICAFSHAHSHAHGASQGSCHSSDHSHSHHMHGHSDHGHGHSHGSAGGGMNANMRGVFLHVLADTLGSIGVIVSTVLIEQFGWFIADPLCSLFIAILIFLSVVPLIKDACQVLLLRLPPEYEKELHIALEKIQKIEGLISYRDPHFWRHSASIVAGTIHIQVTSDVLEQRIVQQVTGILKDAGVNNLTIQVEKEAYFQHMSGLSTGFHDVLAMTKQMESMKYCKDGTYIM
UniProt P12235: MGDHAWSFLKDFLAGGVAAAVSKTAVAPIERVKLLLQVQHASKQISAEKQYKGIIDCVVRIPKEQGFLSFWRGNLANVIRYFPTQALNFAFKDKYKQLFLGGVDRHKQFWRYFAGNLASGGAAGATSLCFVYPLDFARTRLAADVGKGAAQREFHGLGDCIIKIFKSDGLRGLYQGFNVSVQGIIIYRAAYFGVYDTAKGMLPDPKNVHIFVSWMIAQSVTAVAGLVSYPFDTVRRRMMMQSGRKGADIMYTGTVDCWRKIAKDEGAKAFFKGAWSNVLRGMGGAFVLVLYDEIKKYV
UniProt Q9HC21: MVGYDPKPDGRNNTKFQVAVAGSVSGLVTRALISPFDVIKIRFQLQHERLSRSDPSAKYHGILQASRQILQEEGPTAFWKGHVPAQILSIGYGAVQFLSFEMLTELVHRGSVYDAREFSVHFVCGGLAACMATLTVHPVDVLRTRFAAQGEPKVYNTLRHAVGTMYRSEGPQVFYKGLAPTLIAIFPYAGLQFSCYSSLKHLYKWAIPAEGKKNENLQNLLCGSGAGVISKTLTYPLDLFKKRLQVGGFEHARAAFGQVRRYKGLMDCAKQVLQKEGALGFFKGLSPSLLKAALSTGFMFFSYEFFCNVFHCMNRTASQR
UniProt Q9BRY0: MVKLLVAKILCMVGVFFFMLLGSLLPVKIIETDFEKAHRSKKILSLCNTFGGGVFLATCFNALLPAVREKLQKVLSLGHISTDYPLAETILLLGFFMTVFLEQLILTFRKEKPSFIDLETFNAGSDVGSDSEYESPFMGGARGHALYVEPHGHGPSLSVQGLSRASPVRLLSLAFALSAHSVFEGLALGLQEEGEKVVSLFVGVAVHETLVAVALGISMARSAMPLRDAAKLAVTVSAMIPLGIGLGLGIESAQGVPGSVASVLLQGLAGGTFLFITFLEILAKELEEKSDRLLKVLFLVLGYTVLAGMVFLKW
UniProt Q5SVS4: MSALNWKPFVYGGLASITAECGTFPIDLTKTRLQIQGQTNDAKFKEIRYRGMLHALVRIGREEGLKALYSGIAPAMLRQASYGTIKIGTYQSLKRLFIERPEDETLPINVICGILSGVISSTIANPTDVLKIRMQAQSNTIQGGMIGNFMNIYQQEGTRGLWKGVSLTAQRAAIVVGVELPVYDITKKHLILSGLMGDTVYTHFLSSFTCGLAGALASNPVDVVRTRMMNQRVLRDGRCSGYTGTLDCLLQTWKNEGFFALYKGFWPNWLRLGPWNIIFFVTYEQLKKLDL
UniProt Q9BSK2: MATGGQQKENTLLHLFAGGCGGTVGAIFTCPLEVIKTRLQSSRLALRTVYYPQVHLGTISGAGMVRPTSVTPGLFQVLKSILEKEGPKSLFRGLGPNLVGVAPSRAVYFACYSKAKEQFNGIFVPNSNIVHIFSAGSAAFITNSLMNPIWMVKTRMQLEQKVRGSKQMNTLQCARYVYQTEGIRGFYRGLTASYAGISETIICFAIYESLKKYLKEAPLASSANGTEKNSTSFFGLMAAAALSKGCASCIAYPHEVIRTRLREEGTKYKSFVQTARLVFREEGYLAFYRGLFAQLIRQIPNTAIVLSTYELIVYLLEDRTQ
UniProt O43808: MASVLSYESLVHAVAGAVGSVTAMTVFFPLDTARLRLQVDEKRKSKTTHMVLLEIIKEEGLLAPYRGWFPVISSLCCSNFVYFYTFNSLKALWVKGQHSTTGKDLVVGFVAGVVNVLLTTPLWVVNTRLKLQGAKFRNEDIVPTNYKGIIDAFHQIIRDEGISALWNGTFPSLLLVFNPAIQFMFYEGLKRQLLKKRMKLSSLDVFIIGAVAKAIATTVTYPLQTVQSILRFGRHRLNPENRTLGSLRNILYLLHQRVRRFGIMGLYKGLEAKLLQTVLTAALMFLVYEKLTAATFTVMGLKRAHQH
UniProt P08195: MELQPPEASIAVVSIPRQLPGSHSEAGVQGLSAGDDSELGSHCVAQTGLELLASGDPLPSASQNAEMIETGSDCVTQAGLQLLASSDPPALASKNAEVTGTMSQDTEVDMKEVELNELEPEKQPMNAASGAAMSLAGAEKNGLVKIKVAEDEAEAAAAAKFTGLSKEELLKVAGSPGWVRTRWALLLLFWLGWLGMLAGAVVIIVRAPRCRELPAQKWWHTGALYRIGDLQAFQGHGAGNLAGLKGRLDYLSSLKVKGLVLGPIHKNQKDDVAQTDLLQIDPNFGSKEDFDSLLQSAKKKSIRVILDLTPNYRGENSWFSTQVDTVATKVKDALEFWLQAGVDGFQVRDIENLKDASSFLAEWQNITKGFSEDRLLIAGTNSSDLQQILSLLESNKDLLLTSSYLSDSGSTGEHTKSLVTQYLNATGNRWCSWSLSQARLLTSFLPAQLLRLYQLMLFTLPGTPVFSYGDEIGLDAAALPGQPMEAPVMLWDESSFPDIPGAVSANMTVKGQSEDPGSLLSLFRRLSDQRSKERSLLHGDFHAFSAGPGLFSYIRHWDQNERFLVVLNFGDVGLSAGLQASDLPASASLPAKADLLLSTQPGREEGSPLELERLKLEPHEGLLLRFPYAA
UniProt Q70HW3: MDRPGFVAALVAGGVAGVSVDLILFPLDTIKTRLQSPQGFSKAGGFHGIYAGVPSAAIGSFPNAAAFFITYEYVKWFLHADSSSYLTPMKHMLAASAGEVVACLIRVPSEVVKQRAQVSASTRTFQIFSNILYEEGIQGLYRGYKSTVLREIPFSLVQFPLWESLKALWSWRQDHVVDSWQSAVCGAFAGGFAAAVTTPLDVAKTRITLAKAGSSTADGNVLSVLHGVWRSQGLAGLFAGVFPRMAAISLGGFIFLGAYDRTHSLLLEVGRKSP
UniProt Q9BQT8: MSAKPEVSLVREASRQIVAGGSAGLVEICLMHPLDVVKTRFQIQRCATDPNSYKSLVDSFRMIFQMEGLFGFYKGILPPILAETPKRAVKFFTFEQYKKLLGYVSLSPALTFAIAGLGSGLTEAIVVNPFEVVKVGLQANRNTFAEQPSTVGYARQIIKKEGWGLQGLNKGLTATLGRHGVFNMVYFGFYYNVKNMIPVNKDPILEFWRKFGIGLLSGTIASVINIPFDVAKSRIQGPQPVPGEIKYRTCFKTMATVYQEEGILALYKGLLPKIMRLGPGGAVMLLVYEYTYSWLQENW
UniProt Q9UBX3: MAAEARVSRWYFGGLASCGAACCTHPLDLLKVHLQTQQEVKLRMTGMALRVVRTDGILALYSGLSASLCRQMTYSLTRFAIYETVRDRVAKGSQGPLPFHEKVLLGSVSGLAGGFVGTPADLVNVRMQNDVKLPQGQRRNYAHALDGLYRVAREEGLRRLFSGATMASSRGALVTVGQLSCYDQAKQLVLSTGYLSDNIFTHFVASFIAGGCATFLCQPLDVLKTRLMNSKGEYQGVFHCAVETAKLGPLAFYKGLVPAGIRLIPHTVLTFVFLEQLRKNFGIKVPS
UniProt Q14542: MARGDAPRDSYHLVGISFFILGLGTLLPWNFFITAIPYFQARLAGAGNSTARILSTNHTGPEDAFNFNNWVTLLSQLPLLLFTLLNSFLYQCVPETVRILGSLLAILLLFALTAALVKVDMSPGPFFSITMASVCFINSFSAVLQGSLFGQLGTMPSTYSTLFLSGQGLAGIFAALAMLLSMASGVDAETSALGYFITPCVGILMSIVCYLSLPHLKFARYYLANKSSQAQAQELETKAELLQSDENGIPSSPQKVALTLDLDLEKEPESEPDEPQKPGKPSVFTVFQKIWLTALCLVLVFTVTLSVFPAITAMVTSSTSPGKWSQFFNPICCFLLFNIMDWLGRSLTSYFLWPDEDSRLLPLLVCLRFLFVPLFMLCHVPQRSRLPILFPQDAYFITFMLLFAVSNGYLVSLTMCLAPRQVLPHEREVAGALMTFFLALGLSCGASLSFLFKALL
UniProt Q8IWA5: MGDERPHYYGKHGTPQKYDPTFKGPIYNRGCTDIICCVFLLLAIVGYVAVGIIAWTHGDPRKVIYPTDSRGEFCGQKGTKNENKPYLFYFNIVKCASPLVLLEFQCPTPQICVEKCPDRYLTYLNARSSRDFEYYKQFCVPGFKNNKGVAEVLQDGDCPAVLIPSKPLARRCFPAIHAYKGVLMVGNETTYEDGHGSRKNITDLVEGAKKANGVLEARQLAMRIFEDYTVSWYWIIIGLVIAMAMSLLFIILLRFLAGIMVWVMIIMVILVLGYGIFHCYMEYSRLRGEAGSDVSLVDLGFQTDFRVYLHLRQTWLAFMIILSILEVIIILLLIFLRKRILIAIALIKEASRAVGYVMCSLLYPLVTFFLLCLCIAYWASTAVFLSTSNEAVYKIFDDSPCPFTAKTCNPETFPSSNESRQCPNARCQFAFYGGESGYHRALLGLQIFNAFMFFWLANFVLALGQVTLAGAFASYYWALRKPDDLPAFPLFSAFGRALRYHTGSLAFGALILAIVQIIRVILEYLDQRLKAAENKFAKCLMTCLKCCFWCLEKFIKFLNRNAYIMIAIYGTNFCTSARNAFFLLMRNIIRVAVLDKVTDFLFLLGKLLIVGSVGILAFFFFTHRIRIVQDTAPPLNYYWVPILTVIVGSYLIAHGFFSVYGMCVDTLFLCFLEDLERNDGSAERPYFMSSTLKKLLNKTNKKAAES
UniProt O00193: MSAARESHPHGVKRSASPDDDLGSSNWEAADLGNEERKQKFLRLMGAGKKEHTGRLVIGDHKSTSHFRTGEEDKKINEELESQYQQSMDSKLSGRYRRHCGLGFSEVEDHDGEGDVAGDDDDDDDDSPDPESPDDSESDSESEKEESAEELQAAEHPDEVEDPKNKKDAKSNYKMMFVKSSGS
UniProt Q9UPY5: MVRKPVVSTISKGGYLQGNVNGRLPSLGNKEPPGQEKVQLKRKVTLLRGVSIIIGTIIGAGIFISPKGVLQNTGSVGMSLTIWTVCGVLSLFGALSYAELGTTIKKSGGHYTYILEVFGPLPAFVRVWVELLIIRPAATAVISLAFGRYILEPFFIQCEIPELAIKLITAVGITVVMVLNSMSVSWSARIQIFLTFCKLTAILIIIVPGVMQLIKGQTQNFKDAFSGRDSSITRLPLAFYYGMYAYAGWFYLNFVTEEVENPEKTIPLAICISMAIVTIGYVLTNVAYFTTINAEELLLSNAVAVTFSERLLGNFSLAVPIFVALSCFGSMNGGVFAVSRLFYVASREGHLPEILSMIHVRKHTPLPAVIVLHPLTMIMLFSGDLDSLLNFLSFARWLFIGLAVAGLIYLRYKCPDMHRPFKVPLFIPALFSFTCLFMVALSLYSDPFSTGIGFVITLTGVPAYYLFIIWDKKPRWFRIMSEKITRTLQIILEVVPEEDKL
UniProt Q15796, whole entry, looked up: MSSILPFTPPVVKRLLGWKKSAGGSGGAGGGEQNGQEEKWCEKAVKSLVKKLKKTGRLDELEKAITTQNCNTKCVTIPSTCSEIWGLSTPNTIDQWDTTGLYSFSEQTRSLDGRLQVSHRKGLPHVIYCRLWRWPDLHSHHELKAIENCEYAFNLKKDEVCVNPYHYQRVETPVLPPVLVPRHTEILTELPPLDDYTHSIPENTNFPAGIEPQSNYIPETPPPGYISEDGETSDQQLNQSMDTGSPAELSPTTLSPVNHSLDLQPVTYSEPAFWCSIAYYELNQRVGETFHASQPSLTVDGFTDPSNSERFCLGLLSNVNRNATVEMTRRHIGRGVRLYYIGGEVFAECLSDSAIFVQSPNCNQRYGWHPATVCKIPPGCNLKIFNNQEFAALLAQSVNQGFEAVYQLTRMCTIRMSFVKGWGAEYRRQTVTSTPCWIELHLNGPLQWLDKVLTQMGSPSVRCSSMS

[2] = compound: CC(=O)c1cnc2ccc(-c3cc(Cl)c(O)c(Cl)c3)nc2c1N[C@H]1CC[C@H](CN(C)C)CC1
Procedure, shortened: as §1

[3] = compound: CC(C)(C)Cn1c(N)nc2ccc(-c3[nH]c(C(C)(C)C)nc3-c3ccc(F)cc3)nc21 [ralimetinib]
Procedure, shortened: as §1

[4] = compound: CC(C)(O)CC(=O)NCCn1ccc2ncnc(Nc3ccc(Oc4cccc(C(F)(F)F)c4)c(Cl)c3)c21
Procedure, shortened: as §1

[5] = compound: CC(C)C1=C2N=C(C=C(N2N=C1)NCC3=CC=CC=C3)NCCCCCCN
Procedure, shortened: as §1

[6] = compound: CC1=C(C(CC(=O)N1)C2=CC=C(C=C2)C(F)(F)F)C(=O)NC3=C(C=C4C(=C3)C=NN4)F
Procedure, shortened: as §1

[7] = compound: CC1=C(C2=C(C=C1)C(=O)C3=CC=CC=C3N2CCCN)C
Procedure, shortened: as §1

[8] = compound: CC1=C(C=C(C=C1)NC(=O)C2=CC(=CC=C2)C(C)(C)C#N)NC3=CC4=C(C=C3)N=CN(C4=O)C
Procedure, shortened: as §1

[9] = compound: CC1=C(C=C(C=C1)NC(=O)C2=CC(=CC=C2)N(C)C)NC(=O)C3=CC=C(C=C3)O
Procedure, shortened: as §1

[10] = compound: CC1=CC=C(C=C1)SC2=C3C=C(SC3=CN=C2)C(=O)N
Procedure, shortened: as §1

Measured: log2 fold change

SLC35A4 (UniProt L0R6Q1)
inactive: [1] 0.035 | [2] -0.078 | [3] 0.046 | [4] -0.046 | [5] 0 | [6] -0.046 | [7] -0.046 | [8] 0.103 | [9] -0.001 | [10] -0.007

SLC30A5 (UniProt Q8TAD4)
inactive: [1] -0.055 | [2] 0.039 | [3] -0.079 | [4] -0.023 | [5] -0.041 | [6] -0.031 | [7] -0.024 | [8] -0.036 | [9] -0.01 | [10] -0.012

SLC25A4 (UniProt P12235)
inactive: [1] 0.047 | [2] 0.023 | [3] 0.067 | [4] 0.021 | [5] -0.011 | [6] 0.014 | [7] 0.033 | [8] -0.024 | [9] -0.002 | [10] 0.059

SLC25A19 (UniProt Q9HC21)
inactive: [1] 0.045 | [2] 0.02 | [3] 0.009 | [4] 0 | [5] 0.033 | [6] 0.033 | [7] 0.039 | [8] -0.015 | [9] 0.019 | [10] 0.07

SLC39A3 (UniProt Q9BRY0)
inactive: [1] 0.005 | [2] 0.009 | [3] 0.178 | [4] 0.041 | [5] -0.045 | [6] 0.063 | [7] 0.009 | [8] 0.085 | [9] 0.008 | [10] 0.018

SLC25A30 (UniProt Q5SVS4)
inactive: [1] 0.037 | [2] -0.013 | [3] -0.019 | [4] -0.113 | [5] 0.017 | [6] 0.13 | [7] -0.249 | [8] -0.033 | [9] 0.008 | [10] 0.037

SLC25A33 (UniProt Q9BSK2)
inactive: [1] 0.044 | [2] -0.031 | [3] 0.041 | [4] -0.026 | [5] 0.01 | [6] 0.038 | [7] 0.081 | [8] 0.042 | [9] -0.022 | [10] 0.004

SLC25A17 (UniProt O43808)
inactive: [1] -0.007 | [2] -0.043 | [3] 0.047 | [4] -0.019 | [5] 0.037 | [6] 0.001 | [7] 0.029 | [8] 0.03 | [9] -0.01 | [10] 0.044

SLC3A2 isoform 3 (UniProt P08195)
inactive: [1] -0.005 | [2] -0.001 | [3] -0.001 | [4] -0.03 | [5] -0.008 | [6] -0.009 | [7] -0.017 | [8] 0.017 | [9] 0.009 | [10] -0.031

SLC25A26 (UniProt Q70HW3)
inactive: [1] 0.084 | [2] 0.084 | [3] -0.107 | [4] -0.038 | [5] -0.013 | [6] -0.041 | [7] 0.153 | [8] 0.036 | [9] -0.022 | [10] -0.153

SLMAP isoform 3 (UniProt Q14BN4)
inactive: [1] -0.029 | [2] 0 | [3] 0.012 | [4] -0.03 | [5] -0.016 | [6] 0.022 | [7] -0.006 | [8] 0.006 | [9] 0.023 | [10] 0.008

SLC38A2 (UniProt Q96QD8)
inactive: [1] 0.039 | [2] -0.015 | [3] 0.001 | [4] 0.03 | [5] -0.101 | [6] -0.042 | [7] 0.018 | [8] -0.036 | [9] -0.057 | [10] 0.024

SLC25A37 (UniProt Q9NYZ2)
inactive: [1] 0.031 | [2] 0.012 | [3] -0.01 | [4] -0.066 | [5] 0.01 | [6] -0.038 | [7] -0.071 | [8] 0.054 | [9] -0.103 | [10] 0.046

SLC39A10 (UniProt Q9ULF5)
inactive: [1] 0.045 | [2] -0.049 | [3] 0.05 | [4] 0.019 | [5] -0.027 | [6] 0.012 | [7] 0.027 | [8] -0.031 | [9] -0.009 | [10] -0.02

SLC2A3 (UniProt P11169)
inactive: [1] 0.005 | [2] 0.02 | [3] -0.002 | [4] 0 | [5] -0.024 | [6] -0.032 | [7] -0.035 | [8] -0.014 | [9] 0.022 | [10] -0.026

SLC25A21 (UniProt Q9BQT8)
inactive: [1] -0.027 | [2] -0.016 | [3] 0.026 | [4] -0.02 | [5] 0.002 | [6] 0.01 | [7] -0.056 | [8] -0.002 | [9] -0.007 | [10] 0.03

SLC25A10 isoform 2 (UniProt Q9UBX3)
inactive: [1] 0.004 | [2] -0.009 | [3] 0.035 | [4] -0.019 | [5] 0.009 | [6] 0.017 | [7] 0.013 | [8] 0.002 | [9] 0.009 | [10] 0.028

2 records drawn at random from those above:
SLC25A37 (UniProt Q9NYZ2)
inactive: [1] 0.031 | [2] 0.012 | [3] -0.01 | [4] -0.066 | [5] 0.01 | [6] -0.038 | [7] -0.071 | [8] 0.054 | [9] -0.103 | [10] 0.046

SLC25A10 isoform 2 (UniProt Q9UBX3)
inactive: [1] 0.004 | [2] -0.009 | [3] 0.035 | [4] -0.019 | [5] 0.009 | [6] 0.017 | [7] 0.013 | [8] 0.002 | [9] 0.009 | [10] 0.028

(cont.)

SLC25A15 (UniProt Q9Y619)
inactive: [1] 0 | [2] -0.012 | [3] 0.022 | [4] -0.035 | [5] -0.027 | [6] -0.045 | [7] 0.037 | [8] -0.001 | [9] -0.012 | [10] -0.005

SLC25A14 isoform 3 (UniProt O95258)
inactive: [1] -0.064 | [2] 0.016 | [3] 0.017 | [4] -0.054 | [5] 0.019 | [6] -0.067 | [7] -0.06 | [8] 0.032 | [9] -0.053 | [10] 0

SLC30A9 (UniProt Q6PML9)
inactive: [1] 0.061 | [2] 0.002 | [3] -0.03 | [4] 0.064 | [5] 0.021 | [6] -0.033 | [7] 0.008 | [8] 0.017 | [9] -0.213 | [10] -0.009

SLC29A2 (UniProt Q14542)
inactive: [1] 0.035 | [2] 0.045 | [3] 0.082 | [4] -0.036 | [5] 0.043 | [6] -0.001 | [7] -0.011 | [8] 0.041 | [9] 0.072 | [10] 0.006

SLC44A2 (UniProt Q8IWA5)
inactive: [1] -0.089 | [2] -0.023 | [3] -0.035 | [4] -0.119 | [5] 0.021 | [6] 0.042 | [7] -0.059 | [8] 0.025 | [9] 0.03 | [10] -0.051

SLIRP (UniProt Q9GZT3)
inactive: [1] -0.036 | [2] 0.015 | [3] -0.019 | [4] -0.03 | [5] -0.003 | [6] 0.004 | [7] -0.017 | [8] 0.023 | [9] -0.029 | [10] -0.036

SLC4A1 (UniProt P02730)
inactive: [1] 0.082 | [2] -0.036 | [3] -0.02 | [4] -0.098 | [5] -0.008 | [6] 0.089 | [7] 0.039 | [8] -0.002 | [9] -0.018 | [10] -0.056

SMAP1 isoform 2 (UniProt Q8IYB5)
inactive: [1] 0.003 | [2] 0.026 | [3] -0.026 | [4] -0.002 | [5] 0.002 | [6] 0.022 | [7] 0.008 | [8] 0.029 | [9] -0.01 | [10] -0.018

SMAP (UniProt O00193)
inactive: [1] 0 | [2] 0.025 | [3] 0.014 | [4] -0.028 | [5] -0.033 | [6] -0.058 | [7] -0.011 | [8] -0.086 | [9] -0.017 | [10] -0.034

SLC7A11 (UniProt Q9UPY5)
inactive: [1] 0.028 | [2] -0.007 | [3] 0.061 | [4] -0.103 | [5] -0.043 | [6] -0.048 | [7] -0.045 | [8] 0.039 | [9] -0.007 | [10] -0.032

SMAD2 (UniProt Q15796)
inactive: [1] 0.041 | [2] -0.014 | [3] 0.025 | [4] 0.012 | [5] 0.005 | [6] -0.061 | [7] -0.014 | [8] 0.054 | [9] 0.029 | [10] 0.017

SLC25A22 (UniProt Q9H936)
inactive: [1] -0.01 | [2] -0.004 | [3] 0 | [4] -0.014 | [5] 0.013 | [6] -0.013 | [7] 0.014 | [8] 0.035 | [9] -0.008 | [10] 0.037
